Laboratory results published in paper PMC8408529.
These are yes or no findings as the source states them, for the method shown. In cells and extracts the contact can be indirect. Some binding calls cover weakened binding; strength is not graded here.

Protein sequences, listed by entry. Tags and fused reporters are not part of them.
UniProt E9Q7G0: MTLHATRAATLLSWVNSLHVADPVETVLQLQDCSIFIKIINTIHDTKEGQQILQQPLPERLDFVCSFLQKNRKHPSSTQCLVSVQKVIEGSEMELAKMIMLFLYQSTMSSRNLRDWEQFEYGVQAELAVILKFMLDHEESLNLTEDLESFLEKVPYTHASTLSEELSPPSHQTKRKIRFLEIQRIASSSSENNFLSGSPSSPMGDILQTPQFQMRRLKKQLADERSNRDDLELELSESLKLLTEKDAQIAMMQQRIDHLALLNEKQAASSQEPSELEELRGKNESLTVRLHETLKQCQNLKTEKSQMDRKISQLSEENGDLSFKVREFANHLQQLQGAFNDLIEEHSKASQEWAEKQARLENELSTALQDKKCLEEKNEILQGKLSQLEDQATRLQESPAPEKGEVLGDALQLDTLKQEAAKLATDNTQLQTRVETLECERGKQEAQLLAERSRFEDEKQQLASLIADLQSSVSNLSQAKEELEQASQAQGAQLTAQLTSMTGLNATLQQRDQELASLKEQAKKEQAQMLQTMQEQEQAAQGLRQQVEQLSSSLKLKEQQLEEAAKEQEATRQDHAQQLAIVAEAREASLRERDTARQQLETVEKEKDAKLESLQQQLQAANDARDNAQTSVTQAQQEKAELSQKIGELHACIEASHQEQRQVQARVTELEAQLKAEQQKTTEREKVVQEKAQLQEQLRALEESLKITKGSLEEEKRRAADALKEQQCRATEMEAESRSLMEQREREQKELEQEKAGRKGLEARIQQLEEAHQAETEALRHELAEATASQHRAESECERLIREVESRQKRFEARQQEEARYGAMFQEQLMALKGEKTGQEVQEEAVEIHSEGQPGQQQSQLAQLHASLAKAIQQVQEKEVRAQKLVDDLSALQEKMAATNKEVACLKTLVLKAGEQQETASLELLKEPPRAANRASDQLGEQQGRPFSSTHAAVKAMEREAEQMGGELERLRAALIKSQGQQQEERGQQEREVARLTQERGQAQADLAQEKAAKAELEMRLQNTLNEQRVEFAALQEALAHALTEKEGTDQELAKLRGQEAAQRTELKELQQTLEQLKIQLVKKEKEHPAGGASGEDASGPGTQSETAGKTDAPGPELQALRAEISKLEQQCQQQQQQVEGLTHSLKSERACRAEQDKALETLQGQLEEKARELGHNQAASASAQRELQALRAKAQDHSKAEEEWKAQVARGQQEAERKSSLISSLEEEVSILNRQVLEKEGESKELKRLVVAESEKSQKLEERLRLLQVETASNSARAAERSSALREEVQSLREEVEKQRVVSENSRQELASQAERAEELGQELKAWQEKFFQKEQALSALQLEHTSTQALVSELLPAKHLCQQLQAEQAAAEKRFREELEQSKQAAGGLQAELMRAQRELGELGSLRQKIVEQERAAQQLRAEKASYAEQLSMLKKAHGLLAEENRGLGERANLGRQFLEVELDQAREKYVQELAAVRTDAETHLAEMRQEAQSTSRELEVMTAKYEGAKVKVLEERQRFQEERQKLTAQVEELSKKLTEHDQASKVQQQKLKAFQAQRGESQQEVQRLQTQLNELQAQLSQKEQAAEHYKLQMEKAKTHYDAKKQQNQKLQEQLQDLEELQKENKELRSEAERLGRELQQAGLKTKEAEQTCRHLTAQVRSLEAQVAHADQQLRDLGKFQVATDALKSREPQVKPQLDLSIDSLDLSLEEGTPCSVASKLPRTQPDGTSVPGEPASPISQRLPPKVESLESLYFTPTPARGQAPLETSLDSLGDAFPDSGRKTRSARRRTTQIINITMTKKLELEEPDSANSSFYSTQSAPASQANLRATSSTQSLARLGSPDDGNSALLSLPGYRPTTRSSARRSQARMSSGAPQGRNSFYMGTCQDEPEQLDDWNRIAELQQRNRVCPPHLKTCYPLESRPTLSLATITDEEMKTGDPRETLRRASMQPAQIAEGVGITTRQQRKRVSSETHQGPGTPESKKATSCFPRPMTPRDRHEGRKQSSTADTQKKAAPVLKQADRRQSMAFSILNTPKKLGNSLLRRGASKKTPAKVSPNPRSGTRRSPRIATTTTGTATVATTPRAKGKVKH
UniProt O08788: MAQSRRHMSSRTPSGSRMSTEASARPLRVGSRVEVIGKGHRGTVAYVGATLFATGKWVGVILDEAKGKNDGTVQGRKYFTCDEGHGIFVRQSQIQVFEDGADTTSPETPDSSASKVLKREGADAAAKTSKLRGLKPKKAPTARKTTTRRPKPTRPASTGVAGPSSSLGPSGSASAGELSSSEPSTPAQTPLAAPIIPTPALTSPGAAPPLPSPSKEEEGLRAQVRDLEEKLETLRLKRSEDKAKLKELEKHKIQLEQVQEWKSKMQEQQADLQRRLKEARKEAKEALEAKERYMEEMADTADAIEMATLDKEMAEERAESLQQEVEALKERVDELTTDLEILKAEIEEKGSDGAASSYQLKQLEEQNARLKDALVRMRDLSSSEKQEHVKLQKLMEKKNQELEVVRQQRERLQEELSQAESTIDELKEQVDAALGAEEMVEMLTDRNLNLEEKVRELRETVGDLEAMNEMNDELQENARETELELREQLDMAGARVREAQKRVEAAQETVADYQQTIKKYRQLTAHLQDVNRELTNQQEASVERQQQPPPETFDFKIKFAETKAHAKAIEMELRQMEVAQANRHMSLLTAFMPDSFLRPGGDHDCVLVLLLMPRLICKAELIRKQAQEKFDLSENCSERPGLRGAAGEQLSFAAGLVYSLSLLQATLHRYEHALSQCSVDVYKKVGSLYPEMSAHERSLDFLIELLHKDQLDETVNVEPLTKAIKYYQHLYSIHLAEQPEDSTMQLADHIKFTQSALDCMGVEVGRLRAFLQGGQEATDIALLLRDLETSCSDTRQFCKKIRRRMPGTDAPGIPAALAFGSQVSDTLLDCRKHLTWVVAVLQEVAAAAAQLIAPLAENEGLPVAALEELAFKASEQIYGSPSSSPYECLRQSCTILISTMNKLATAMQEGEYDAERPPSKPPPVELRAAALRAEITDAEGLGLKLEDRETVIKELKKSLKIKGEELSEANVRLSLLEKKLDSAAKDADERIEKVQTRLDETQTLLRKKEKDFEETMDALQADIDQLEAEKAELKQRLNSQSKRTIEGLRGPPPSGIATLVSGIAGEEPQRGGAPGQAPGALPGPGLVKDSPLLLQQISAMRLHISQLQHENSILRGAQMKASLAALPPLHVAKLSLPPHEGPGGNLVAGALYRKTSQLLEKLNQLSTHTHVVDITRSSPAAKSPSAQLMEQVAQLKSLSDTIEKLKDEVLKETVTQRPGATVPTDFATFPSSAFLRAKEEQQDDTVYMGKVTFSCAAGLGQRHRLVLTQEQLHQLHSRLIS

Legend:
[1] = biological target: T1, LGN (mouse, MELC) (mouse (endogenous in MELC)) (UniProt Q8VDU0); assay: co-IP; induced MELC lysates (50 mM HEPES pH 7.5, 150 mM NaCl, 1% NP-40) precipitated with anti-4.1R, anti-Numb, anti-LGN, anti-NuMA or anti-p150^Glued Ab on protein A-Sepharose, rabbit or mouse IgG as controls; immunoblot with each respective Ab
T1 sequence: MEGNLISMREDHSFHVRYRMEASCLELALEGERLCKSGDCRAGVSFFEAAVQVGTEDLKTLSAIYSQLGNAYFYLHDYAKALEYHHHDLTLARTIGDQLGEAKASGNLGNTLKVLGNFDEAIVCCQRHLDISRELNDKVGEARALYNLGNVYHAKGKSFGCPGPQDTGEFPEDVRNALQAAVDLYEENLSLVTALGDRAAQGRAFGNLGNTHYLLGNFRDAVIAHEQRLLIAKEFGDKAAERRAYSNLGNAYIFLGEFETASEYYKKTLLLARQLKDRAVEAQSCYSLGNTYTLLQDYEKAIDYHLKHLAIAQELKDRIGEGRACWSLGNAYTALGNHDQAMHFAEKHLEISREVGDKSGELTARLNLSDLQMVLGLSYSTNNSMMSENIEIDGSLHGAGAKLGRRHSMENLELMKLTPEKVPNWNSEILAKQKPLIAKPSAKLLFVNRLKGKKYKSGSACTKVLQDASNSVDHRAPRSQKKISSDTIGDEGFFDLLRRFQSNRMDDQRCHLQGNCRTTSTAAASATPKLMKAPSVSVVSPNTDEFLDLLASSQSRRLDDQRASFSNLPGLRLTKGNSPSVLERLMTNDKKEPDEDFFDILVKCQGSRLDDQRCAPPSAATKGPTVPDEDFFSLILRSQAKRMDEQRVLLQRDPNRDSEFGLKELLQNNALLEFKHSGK

[2] = biological target: NuMA (mouse, MELC) (mouse (endogenous in MELC)) (UniProt E9Q7G0); assay: as above

Row | binding [1] | binding [2] | Substance
1 | binds | binds | p150^Glued (mouse, MELC) (from UniProt O08788 1-1281)
2 | binds |  | NuMA (mouse, MELC) (from UniProt E9Q7G0 1-2094)
